Data reported in patent US10183050B2, “Bean leaves or bean stems having high isoflavone derivatives content and method for preparing same” (INDUSTRY-ACADEMIC COOPERATION FOUNDATION GYEONGSANG …, priority 2013, dated 2019).

What was measured:
soybean leaves [1] = experiment: UPLC quantitative analysis of isoflavone derivatives in soybean leaves treated with ethephon after harvest; parameters: species or system Glycine max; conditions: soybean leaves treated with 50 ppm ethephon after harvest
soybean stems = experiment: HPLC quantitative analysis of isoflavone derivatives in soybean stems treated with ethylene; parameters: species or system Glycine max; conditions: ethanol fraction of soybean stems treated with 100-1000 ppm of ethylene
soybean leaves [2] = conditions: soybean leaves as reported in the literature, no ethylene or ethephon treatment; cited from earlier work

| Structure (SMILES) | Content, 1 day after treatment (soybean leaves [1]) [µg/g] | Content, 2 days after treatment (soybean leaves [1]) [µg/g] | Content, 3 days after treatment (soybean leaves [1]) [µg/g] | Content, After treatment (soybean stems) [µg/g] | content in soybean leaves (soybean leaves [2]) |
| --- | --- | --- | --- | --- | --- |
| O=c1c(-c2ccc(O)cc2)coc2cc(O[C@@H]3OC(CO)[C@@H](O)C(O)C3O)ccc12 (single isomer, unassigned) [Daidzin (1), daidzin] | 1280.4 ± 22.9 | 1551.2 ± 31.4 | 1991.5 ± 51.8 | 1931.7 ± 71.2 | undetected |
| O=c1c(-c2ccc(O)cc2)coc2cc(O[C@@H]3OC(CO)[C@@H](O)[C@H](O)C3O)cc(O)c12 (single isomer, unassigned) [Genistin (2), genistin] | 1316.7 ± 27.5 | 1803.4 ± 48.2 | 2098.7 ± 56.2 | 2004.6 ± 86.1 | 90 µg/g |
| O=C(O)CC(=O)OCC1O[C@@H](Oc2ccc3c(=O)c(-c4ccc(O)cc4)coc3c2)C(O)C(O)[C@@H]1O (single isomer, unassigned) [Malonyldaidzin (3), malonyldaidzin] | 2312.1 ± 33.4 | 3337.9 ± 56.2 | 3528.4 ± 94.1 | 3982.0 ± 129.2 | undetected |
| O=C(O)CC(=O)OCC1O[C@@H](Oc2cc(O)c3c(=O)c(-c4ccc(O)cc4)coc3c2)C(O)C(O)[C@@H]1O (single isomer, unassigned) [Malonylgenistin (4), malonylgenistin] | 2347.4 ± 37.2 | 3480.6 ± 72.4 | 3909.2 ± 91.7 | 4033.1 ± 156.5 | 310 µg/g |
| O=c1c(-c2ccc(O)cc2)coc2cc(O)ccc12 [Daidzein, daidzein] |  |  |  |  | undetected |
| O=c1c(-c2ccc(O)cc2)coc2cc(O)cc(O)c12 [Genistein, genistein] |  |  |  |  | undetected |
